No constants are given. Whether binding was seen depends on the method and setting. Binding seen in cells or lysates may run through a third protein. Some results given as binding are weak or reduced against the parent protein; the word gives no strength. For part of these data: Where a sequence is shown, tags or fusion partners need not be part of it.
Assays:
[1] = target: HDAC3, exogenous, in 293T cells (co-IP) (UniProt O15379); experiment: co-IP; 293T cells transfected with tagged plasmids; cleared lysate precipitated with anti-HA or anti-Myc tag antibody and protein G-plus beads at 4 °C, washed with 0.2% digitonin buffer and PBS, immunoblot
Flag-HDAC3 = Flag-HDAC3 (UniProt O15379); experiment: co-IP; lysates of gastric cancer cells (MKN-45, HGC-27), untransfected or transfected with Flag-HNF4A(WT), Flag-HNF4A(K458R) or Flag-HDAC3; IP overnight at 4 °C with anti-HDAC3 antibody or control IgG, protein A, immunoblot for HDAC3 and HNF4A; cells also treated with λ-phosphatase, PKCi, chidamide, RGFP966 or BAY-3827 (binding told as decreased)
[2] = target: HDAC3 (endogenous, gastric cancer cells) (human (endogenous in MKN-45 and HGC-27)) (UniProt O15379); experiment: as above

Chains of the proteins cited; added tags and fusions are not shown.
UniProt O15379: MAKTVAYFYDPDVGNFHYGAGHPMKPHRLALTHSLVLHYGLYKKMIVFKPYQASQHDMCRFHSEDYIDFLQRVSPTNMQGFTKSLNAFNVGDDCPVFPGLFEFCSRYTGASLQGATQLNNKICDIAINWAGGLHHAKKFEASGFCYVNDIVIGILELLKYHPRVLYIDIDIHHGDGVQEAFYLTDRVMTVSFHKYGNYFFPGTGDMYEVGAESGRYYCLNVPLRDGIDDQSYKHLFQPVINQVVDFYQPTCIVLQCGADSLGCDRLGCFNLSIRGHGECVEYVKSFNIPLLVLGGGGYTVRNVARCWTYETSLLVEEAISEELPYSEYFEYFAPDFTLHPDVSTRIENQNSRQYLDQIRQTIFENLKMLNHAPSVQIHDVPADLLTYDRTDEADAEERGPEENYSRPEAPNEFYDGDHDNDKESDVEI

| Binder | binding [1] | binding (Flag-HDAC3) | binding [2] |
| --- | --- | --- | --- |
| HNF4A wild type, HA-tagged or Myc-tagged, in 293T cells (protein, UniProt P41235 1-474) MRLSKTLVDMDMADYSAALDPAYTTLEFENVQVLTMGNDTSPSEGTNLNAPNSLGVSALCAICGDRATGKHYGASSCDGCKGFFRRSVRKNHMYSCRFSRQCVVDKDKRNQCRYCRLKKCFRAGMKKEAVQNERDRISTRRSSYEDSSLPSINALLQAEVLSRQITSPVSGINGDIRAKKIASIADVCESMKEQLLVLVEWAKYIPAFCELPLDDQVALLRAHAGEHLLLGATKRSMVFKDVLLLGNDYIVPRHCPELAEMSRVSIRILDELVLPFQELQIDDNEYAYLKAIIFFDPDAKGLSDPGKIKRLRSQVQVSLEDYINDRQYDSRGRFGELLLLLPTLQSITWQMIEQIQFIKLFGMAKIDNLLQEMLLGGSPSDAPHAHHPLHPHLMQEHMGTNVIVANTMPTHLSNGQMCEWPRPRGQAATPETPQPSPPGGSGSEPYKLLPGAVATIVKPLSAIPQPTITKQEVI | binds | – | – |
| Hepatocyte nuclear factor 4 alpha (HNF4A), endogenous, gastric cancer cells (protein, UniProt P41235 1-474) MRLSKTLVDMDMADYSAALDPAYTTLEFENVQVLTMGNDTSPSEGTNLNAPNSLGVSALCAICGDRATGKHYGASSCDGCKGFFRRSVRKNHMYSCRFSRQCVVDKDKRNQCRYCRLKKCFRAGMKKEAVQNERDRISTRRSSYEDSSLPSINALLQAEVLSRQITSPVSGINGDIRAKKIASIADVCESMKEQLLVLVEWAKYIPAFCELPLDDQVALLRAHAGEHLLLGATKRSMVFKDVLLLGNDYIVPRHCPELAEMSRVSIRILDELVLPFQELQIDDNEYAYLKAIIFFDPDAKGLSDPGKIKRLRSQVQVSLEDYINDRQYDSRGRFGELLLLLPTLQSITWQMIEQIQFIKLFGMAKIDNLLQEMLLGGSPSDAPHAHHPLHPHLMQEHMGTNVIVANTMPTHLSNGQMCEWPRPRGQAATPETPQPSPPGGSGSEPYKLLPGAVATIVKPLSAIPQPTITKQEVI | – | binds | binds |

Reference: paper PMC12780113
